Results are given in words; binding and its absence hold for the method and conditions named. In cells and extracts the contact can be indirect. A yes stands for co-enrichment or nearness to the bait. Other partners may have been found.
B1: dynamin 1 (protein, UniProt P39053 1-867)
chain: MGNRGMEDLIPLVNRLQDAFSAIGQNADLDLPQIAVVGGQSAGKSSVLENFVGRDFLPRGSGIVTRRPLVLQLVNSTTEYAEFLHCKGKKFTDFEEVRLEIEAETDRVTGTNKGISPVPINLRVYSPHVLNLTLVDLPGMTKVPVGDQPPDIEFQIRDMLMQFVTKENCLILAVSPANSDLANSDALKIAKEVDPQGQRTIGVITKLDLMDEGTDARDVLENKLLPLRRGYIGVVNRSQKDIDGKKDITAALAAERKFFLSHPSYRHLADRMGTPYLQKVLNQQLTNHIRDTLPGLRNKLQSQLLSIEKEVDEYKNFRPDDPARKTKALLQMVQQFAVDFEKRIEGSGDQIDTYELSGGARINRIFHERFPFELVKMEFDEKELRREISYAIKNIHGIRTGLFTPDMAFETIVKKQVKKIREPCLKCVDMVISELISTVRQCTKKLQQYPRLREEMERIVTTHIREREGRTKEQVMLLIDIELAYMNTNHEDFIGFANAQQRSNQMNKKKTSGNQDEILVIRKGWLTINNIGIMKGGSKEYWFVLTAENLSWYKDDEEKEKKYMLSVDNLKLRDVEKGFMSSKHIFALFNTEQRNVYKDYRQLELACETQEEVDSWKASFLRAGVYPERVGDKEKASETEENGSDSFMHSMDPQLERQVETIRNLVDSYMAIVNKTVRDLMPKTIMHLMINNTKEFIFSELLANLYSCGDQNTLMEESAEQAQRRDEMLRMYHALKEALSIIGDINTTTVSTPMPPPVDDSWLQVQSVPAGRRSPTSSPTPQRRAPAVPPARPGSRGPAPGPPPAGSALGGAPPVPSRPGASPDPFGPPPQVPSRPNRAPPGVPSLGAWRLNSPQGKHENRAGKARL
B2: Arhgap26 (protein, UniProt Q6ZQ82 1-814)
chain: MGLPALEFSDCCLDSPHFRETLKSHEAELDKTNKFIKELIKDGKSLISALKNLSSAKRKFADSLNEFKFQCIGDAETDDEMCIARSLQEFAAVLRNLEDERSRMIENASEVLITPLEKFRKEQIGAAREAKKKYDKETEKYCGTLEKHLNLSSKKKESQLQEADSQVDLVRQHFYEVSLEYVFKVQEVQERKMFEFVEPLLAFLQGLFTFYHHGYELAKDFGDFKTQLTISIQNTRNRFEGTRSEVESLMKKMKENPLEHKTISPYTMEGYLYVQEKRHFGTSWVKHYCTYQRDSKQITMVPFDQKSGGKGGEDESVTLKSCTRRKTDSIEKRFCFDVEAVDRPGVITMQALSEEDRRLWMEAMDGREPVYNSNRDSQSEGTAQLDSIGFSIIRKCIHAVETRGINEQGLYRIVGVNSRVQKLLSVLMDPKAASETETDICAEWEIKTVTSALKTYLRMLPGPLMMYQFQRSFIKAAKLENQETRVSEIHSLVHRLPEKNRQMLQLLMNHLANVANNHKQNLMTVANLGVVFGPTLLRPQEETVAAIMDIKFQNIVIEILIENHEKIFNTVPDVPLTNAQLHLSRKKSSDSKPPSCSKRPLTLFHAVPSTEKQEQRNSIINSSLESVSSSANSILNSSSSLQPNLNSSDSNLDVVKPSRPSSLPPNPSPTSPLSPSWPMFSAPSSPMPTSSTSSDSSPIRSVAGFVWFSVAAVVLSLAWSSLHAVFSLLVNFVPCHPNLHLLFDRPEEAVREDSSTPFRKAKALYACQAEHDSELSFTAGTVFDNVHPSQEPGWLEGTLNGKTGLIPENYVEFL
B3: Arhgef2 (protein, UniProt Q60875 1-985)
chain: MSRIESLTRARIDRSKEQATKTREKEKMKEAKDARYTNGHLFTTISVSGMTMCYACNKSITAKEALICPTCNVTIHNRCKDTLANCTKVKQKQQKAALLRNNTALQSVSLRSKTTTRERPTSAIYPSDSFRQSLLGSRRGLSSLSLAKSVSTTNIAGHFNDESPLGLRQILSQSTDSLNMRNRTLSVESLIDEGVEVFYNELMSDFEMDEKDFEADSWSLAVDSSFLQQHKKEVMKKQDVIYELIQTELHHVRTLKIMTRLFRTGMLEELQMEPEVVQGLFPCVDELSDIHTRFLNQLLERRRQALCPGSTRNFVIHRLGDLLISQFSGSNAEQMRKTYSEFCSRHTKALKLYKELYARDKRFQQFIRKMTRSAVLKRHGVQECILLVTQRITKYPVLINRILQNSHGVEEEYQDLASALGLVKELLSNVDQDVHELEKEARLQEIYNRMDPRAQTPVPGKGPFGRDELLRRKLIHEGCLLWKTATGRFKDVLLLLMTDVLVFLQEKDQKYIFTSLDKPSVVSLQNLIVRDIANQAKGMFLISSGPPEMYEVHAASRDDRTTWIRVIQQSVRLCPSREDFPLIETEDKAYLRRIKTKLQQKNQALVELLQKNVELFAEMVHFQALKAGFVGMPPPALPRGLFRLESFESLRGERLLKDALREVEGLKDLLLGPCVDLPMTSREPALPLDSDSGSCPGVTANGEARTFNGSIELCRADSDSSQKDRNGNQLRSPQEEVLQPLINLYGLLHGLQAVVVQQERLMEALFPEGPERWEKLSRANSRDGEAGRAAVASVTPEKQATELALLQRQHTLLQEELRRCQRLGEERATEAGSLEARLRESEQARALLEREAEEIRRQLAALGQNEPLPAEAPWARRPLDPRRRSLPAGDALYLSFNPPQPSRGHDRLDLPVTVRSLHRPFDDREAQELGSPEDRLQDSSDPDTGSEEEVSSRLSPPHSPRDFTRMQDIPEETESRDGEPTASES
B4: serine/threonine-protein kinase DCLK1 (enzyme, UniProt Q9JLM8 1-756)
chain: MSFGRDMELEHFDERDKAQRYSRGSRVNGLPSPTHSAHCSFYRTRTLQTLSSEKKAKKVRFYRNGDRYFKGIVYAISPDRFRSFEALLADLTRTLSDNVNLPQGVRTIYTIDGLKKISSLDQLVEGESYVCGSIEPFKKLEYTKNVNPNWSVNVKTTSASRAVSSLATAKGGPSEVRENKDFIRPKLVTIIRSGVKPRKAVRILLNKKTAHSFEQVLTDITDAIKLDSGVVKRLYTLDGKQVMCLQDFFGDDDIFIACGPEKFRYQDDFLLDESECRVVKSTSYTKIASASRRGTTKSPGPSRRSKSPASTSSVNGTPGSQLSTPRSGKSPSPSPTSPGSLRKQRISQHGGSSTSLSSTKVCSSMDENDGPGEGDELGRRHSLQRGWRREESEEGFQIPATITERYKVGRTIGDGNFAVVKECIERSTAREYALKIIKKSKCRGKEHMIQNEVSILRRVKHPNIVLLIEEMDVPTELYLVMELVKGGDLFDAITSTSKYTERDASGMLYNLASAIKYLHSLNIVHRDIKPENLLVYEHQDGSKSLKLGDFGLATIVDGPLYTVCGTPTYVAPEIIAETGYGLKVDIWAAGVITYILLCGFPPFRGSGDDQEVLFDQILMGQVDFPSPYWDNVSDSAKELINMMLLVNVDQRFSAVQVLEHPWVNDDGLPENEHQLSVAGKIKKHFNTGPKPSSTAAGVSVIATTALDKERQVFRRRRNQDVRSRYKAQPAPPELNSESEDYSPSSSETVRSPNSPF
B5: Wiskott-Aldrich syndrome protein family member 1 (protein, UniProt Q8R5H6 1-559)
chain: MPLVKRNIDPRHLCHTALPRGIKNELECVTNISLANIIRQLSSLSKYAEDIFGELFNEAHSFSFRVNSLQERVDRLSVSVTQLDPKEEELSLQDITMRKAFRSSTIQDQQLFDRKTLPIPLQETYDVCEQPPPLNILTPYRDDGKEGLKFYTNPSYFFDLWKEKMLQDTEDKRKEKRKQKQKNLDRPHEPEKVPRAPHDRRREWQKLAQGPELAEDDADLLHKHIEVANGPASHYETRPQTYVDHMDGSYSLSALPFSQMSELLTRAEERVLVRPHEPPPPPPMHGAGDAKPTPTCISSATGLIENRPQSPAAGRTPVFVSPTPPPPPPPLPSALSTSSLRASMTSTPPPPVPPPPPPPATALQAPAVPPPPAPLQIAPGVLHPAPPPIAPPLVQPSPPVARAAPVCETVPVHPLPQGEVQGLPPPPPPPPLPPPGIRPSSPVAVAALAHPPSGLHPAPSTAPGPHAPLMPPSPPSQVLPASEPKRHPSTLPVISDARSVLLEAIRKGIQLRKVEEQREQEAKHERIENDVATILSRRIAVEYSDSEDDSEFDEVDWLE
B6: 2’,3’-cyclic-nucleotide 3’-phosphodiesterase (enzyme, UniProt P16330 1-420)
chain: MNTSFTRKSHTFLPKLFFRKMSSSGAKEKPELQFPFLQDEDTVATLHECKTLFILRGLPGSGKSTLARLILEKYHDGTKMVSADAYKIIPGSRADFSEAYKRLDEDLAGYCRRDIRVLVLDDTNHERERLDQLFEMADQYQYQVVLVEPKTAWRLDCAQLKEKNQWQLSADDLKKLKPGLEKDFLPLYFGWFLTKKSSETLRKAGQVFLEELGNHKAFKKELRHFISGDEPKEKLELVSYFGKRPPGVLHCTTKFCDYGKAAGAEEYAQQEVVKRSYGKAFKLSISALFVTPKTAGAQVVLTDQELQLWPSDLDKPSASEGLPPGSRAHVTLGCAADVQPVQTGLDLLDILQQVKGGSQGEAVGELPRGKLYSLGKGRWMLSLTKKMEVKAIFTGYYGKGKPVPIHGSRKGGAMQICTII
B7: CCT4 (protein, UniProt P80315 1-539)
chain: MPENVASRSGAPTAGPGSRGKSAYQDRDKPAQIRFSNISAAKAVADAIRTSLGPKGMDKMIQDGKGDVTITNDGATILKQMQVLHPAARMLVELSKAQDIEAGDGTTSVVIIAGSLLDSCTKLLQKGIHPTIISESFQKALEKGLEILTDMSRPVQLSDRETLLNSATTSLNSKVVSQYSSLLSPMSVNAVMKVIDPATATSVDLRDIKIVKKLGGTIDDCELVEGLVLTQKVANSGITRVEKAKIGLIQFCLSAPKTDMDNQIVVSDYAQMDRVLREERAYILNLVKQIKKTGCNVLLIQKSILRDALSDLALHFLNKMKIMVVKDVEREDIEFICKTIGTKPVAHIDQFTADMLGSAELAEEVSLNGSGKLFKITGCTSPGKTVTIVVRGSNKLVIEEAERSIHDALCVIRCLVKKRALIAGGGAPEIELALRLTEYSRTLSGMESYCVRAFADAMEVIPSTLAENAGLNPISTVTELRNRHAQGEKTTGINVRKGGISNILEEMVVQPLLVSVSALTLATETVRSILKIDDVVNTR
B8: myristoylated alanine-rich C-kinase substrate (protein, UniProt P26645 1-309)
chain: MGAQFSKTAAKGEATAERPGEAAVASSPSKANGQENGHVKVNGDASPAAAEPGAKEELQANGSAPAADKEEPASGSAATPAAAEKDEAAAATEPGAGAADKEAAEAEPAEPSSPAAEAEGASASSTSSPKAEDGAAPSPSSETPKKKKKRFSFKKSFKLSGFSFKKSKKESGEGAEAEGATAEGAKDEAAAAAGGEGAAAPGEQAGGAGAEGAAGGEPREAEAAEPEQPEQPEQPAAEEPQAEEQSEAAGEKAEEPAPGATAGDASSAAGPEQEAPAATDEAAASAAPAASPEPQPECSPEAPPAPTAE
B9: thioredoxin (protein, UniProt P10639 1-105)
chain: MVKLIESKEAFQEALAAAGDKLVVVDFSATWCGPCKMIKPFFHSLCDKYSNVVFLEVDVDDCQDVAADCEVKCMPTFQFYKKGQKVGEFSGANKEKLEASITEYA

Protein sequences, listed by entry. Tags and fused reporters are not part of them.
UniProt P63141: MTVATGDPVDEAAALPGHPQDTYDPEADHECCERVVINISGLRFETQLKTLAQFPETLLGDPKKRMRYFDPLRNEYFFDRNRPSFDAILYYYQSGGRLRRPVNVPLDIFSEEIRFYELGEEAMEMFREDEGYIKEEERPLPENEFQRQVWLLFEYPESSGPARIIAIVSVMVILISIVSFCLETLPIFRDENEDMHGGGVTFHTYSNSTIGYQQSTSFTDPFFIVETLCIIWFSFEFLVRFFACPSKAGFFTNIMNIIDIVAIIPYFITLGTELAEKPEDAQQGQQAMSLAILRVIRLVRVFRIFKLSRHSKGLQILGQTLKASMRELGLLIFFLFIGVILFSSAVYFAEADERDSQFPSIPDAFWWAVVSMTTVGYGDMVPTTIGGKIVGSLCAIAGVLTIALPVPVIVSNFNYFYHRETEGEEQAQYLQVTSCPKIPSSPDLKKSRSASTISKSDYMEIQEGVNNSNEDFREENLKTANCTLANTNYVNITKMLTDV

Target: phosphoY458 Kv1.2 (mouse) (UniProt P63141)
Assay: affinity purification with mass spectrometry

binding, binds:
B1, B2, B3, B4, B5, B6, B7, B8, B9
